From publication doi:10.1101/2021.06.20.449126
Results are given in words; binding and its absence hold for the method and conditions named. Binding seen in cells or lysates may run through a third protein. Binding can be weak; no strength is given.

Molecular target: RPRD1A CC domain variant, 3F-tagged (human)
Test: co-IP

binding: binds
B1: endogenous RPRD1B (protein, UniProt Q9NQG5 1-326)
chain: MSSFSESALEKKLSELSNSQQSVQTLSLWLIHHRKHAGPIVSVWHRELRKAKSNRKLTFLYLANDVIQNSKRKGPEFTREFESVLVDAFSHVAREADEGCKKPLERLLNIWQERSVYGGEFIQQLKLSMEDSKSPPPKATEEKKSLKRTFQQIQEEEDDDYPGSYSPQDPSAGPLLTEELIKALQDLENAASGDATVRQKIASLPQEVQDVSLLEKITDKEAAERLSKTVDEACLLLAEYNGRLAAELEDRRQLARMLVEYTQNQKDVLSEKEKKLEEYKQKLARVTQVRKELKSHIQSLPDLSLLPNVTGGLAPLPSAGDLFSTD
